Experiment: Kinetics studies: cycloaddition of o-diones with α-AL
Description: The cycloaddition kinetics of α-AL with different o-diones in pH 7.4 PBS buffer or in aqueous solution with indicated pH.
Measurement of second order rate constants of (A) reactions of o-dione (25 μM) with furan-2(3H)-one (250 μM) in 1×PBS (pH=7.4) and (B) reactions of oD1 (25 μM) with α-AL (250 μM) in different pH buffer. (When pH=5, 6; oD1 is 250 μM and α-AL is 2.5 mM) by plotting ln[1/(1−x)] versus time of o-dione with furan-2(3H)-one reaction (x represents the percent conversion of o-dione).
All kinetics experiments were carried out at room temperature in 1×PBS (pH=7.4). Second order kinetics were performed by combining o-dione and furan-2(3H)-one in a 1:10 ratio, and the concentration of o-dione is 25/250 μM. Pseudo-first order rate constant kobs was determined by plotting ln[1/(1−x)] versus time and analysis by linear regression. x represents the percent conversion of o-dione. The slope of the linear equation is kobs. The second rate constant k2 was calculated by kobs/[furan-2(3H)-one]. The reported errors for rate constants are based on the standard deviation of the mean for experiments performed in triplicate.

Structure (SMILES) | reactivity with α-AL (PBS solution at pH 7.4) | reactivity with α-AL (pH 7.4) | reaction with α-AL in organic solvents (room temperature, benzene and chloroform)
O=C1C(=O)c2cccnc2-c2ncccc21 [PN, phenanthrolinequinone] | high reactivities |  | 
O=C(C(=O)c1ccccc1)c1ccccc1 [Bz] |  | no reactivity | 
O=C1C(=O)c2ccccc2-c2ccccc21 [PQ, phenanthrene-9,10-dione] | high reactivities |  | does not occur

Source: patent US20260209243A1, “A BIOORTHOGONAL CYCLOADDITION REACTION AND USE THEREOF” (NANJING UNIVERSITY, priority 2022, published 2026)
